These results are taken from patent US10221169B2, “Substituted aminothiazoles for the treatment of tuberculosis” (THE BROAD INSTITUTE, INC., priority 2013, dated 2019).

This assay deals with M. tuberculosis. Briefly: MIC of control anti-tuberculosis antibiotics. It counts as cell-based. Conditions: Mycobacterium tuberculosis, MIC used as reference for 10× MIC.

As to `NNC(=O)c1ccncc1` [INH, isoniazid], the minimal inhibitory concentration (MIC) worked out at 0.1 µg/mL.
